In patent US20180340156A1, “PURIFICATION OF A SOLUBLE AND ACTIVE FORM OF ASPARTATE N-[…]” (The University of Toledo, priority 2015, published 2018):
Some entries share one result that the patent states for a list of compounds.

Molecular target: T1, MBP-ANAT fusion enzyme (Homo sapiens, UniProt Q8N9F0)
T1 construct: the full length ANAT enzyme has been expressed and purified in a fusion construct with MBP; made in house; host or cells: E. coli NiCo21(DE3)
T1 sequence (Q8N9F0 1-302): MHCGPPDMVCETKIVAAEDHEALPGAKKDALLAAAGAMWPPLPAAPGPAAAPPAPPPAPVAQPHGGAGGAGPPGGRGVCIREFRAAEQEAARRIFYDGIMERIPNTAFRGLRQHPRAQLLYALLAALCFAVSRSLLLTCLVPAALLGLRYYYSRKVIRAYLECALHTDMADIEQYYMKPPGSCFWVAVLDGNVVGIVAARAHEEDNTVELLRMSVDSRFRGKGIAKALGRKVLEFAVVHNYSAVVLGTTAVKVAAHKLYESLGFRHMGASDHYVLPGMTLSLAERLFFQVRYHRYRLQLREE
Assay: Effect of detergents on ANAT activity (DTNB-based assay, saturating substrates)
Format: biochemical
Settings: after incubation with CMC levels of detergent
Procedure: This assay is illustrated in FIGS. 4A-4B.
The effect of detergent properties on ANAT activity was tested using a variety of different detergents, each at their critical micelle concentration (CMC) levels. All measurements were conducted at least in duplicate by using the DTNB-based assay at saturating substrates levels. The effect of an organic solvent on ANAT activity was also evaluated by varying the DMSO concentration in the assay from 0 to 50%. To test the stability of the purified MBP-ANAT-his construct, the enzyme was stored at 4° C. for several days and activity was monitored daily. To test for the optimal long term storage conditions, the enzyme activity was followed through multiple freeze-thaw cycles between −80° C. and room temperature.

Question: With Triton X-100 as the substance, how does the residual activity read?
Answer: Its residual activity is “greater than 50%”.
